Only a part is listed here, and it is no random draw.

Compound in this test: COC(=O)C#Cc1ccccc1 [methyl 3-phenylpropiolate]
As to the kind of experiment: log2 ratio of iodoacetamide-alkyne labeling of the cysteine site, DMSO over compound (competition); higher = stronger covalent engagement of the cysteine by the compound, active = 1 or more. Conditions: 500 µM; treatment time 1 h; system: HEK293T cell lysate. In short, it runs like this:
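The log2 competition ratio per cysteine is defined as mean reporter intensity in control channels over mean reporter intensity in compound channels. Lysate from HEK293T cells (2 mg/mL) received electrophile (500 µM) or vehicle for 1 h at ambient temperature, followed by iodoacetamide alkyne for 1 h. Samples were clicked to sCIP-TMT reagents, pooled, trypsin-digested overnight at 37 °C, streptavidin-enriched, acid-eluted and run on Orbitrap Eclipse LC-MS/MS with FAIMS, with quantification in FragPipe. Three replicates with duplicate channels were used, and any cysteine quantified in only one replicate was excluded.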
As for UniProt P78527_C3683, the “log2 ratio of iodoacetamide-alkyne labeling” value (shortened to “log2 ratio”) was inactive: 0.491. As for KIF23 C135 (UniProt Q02241), the “log2 ratio” value is inactive: 0.273. The value for UniProt P62826_C120 was inactive: -0.24. Under UniProt P62917_C90 stands inactive: -0.176; under UniProt P84103_C6, inactive: 0.422; under CNBP C140 (UniProt P62633), inactive: 0.134.

Take DR1 C94 (UniProt Q01658): the “log2 ratio” value is inactive: 0.311.

As to UniProt P83731_C36, the “log2 ratio” value is inactive: 0.753.

Take GSTO1 C90 (UniProt P78417): the “log2 ratio” value was inactive: -0.84. In the case of FOXK1 C665 (UniProt P85037), the “log2 ratio” value was inactive: 0.531.

As to UniProt P78527_C3403, the “log2 ratio” value is inactive: 0.156. As for UniProt P62266_C90, the “log2 ratio” value was inactive: 0.324. As to PLCB3 C892 (UniProt Q01970), the “log2 ratio” value was inactive: 0.797. GTF2I C80 (UniProt P78347): the “log2 ratio” value was inactive: 0.0358. For the target CLTC C753 (UniProt Q00610), the “log2 ratio” value is inactive: 0.211. The value for UniProt P63279_C138 was inactive: 0.294; that for PITX1 C77 (UniProt P78337) was inactive: 0.43.

With UniProt P62913_C150, the “log2 ratio” value is inactive: 0.594.

With EWSR1 C540 (UniProt Q01844), the “log2 ratio” value was inactive: -0.123. Under UniProt P78527_C25 stands inactive: 0.3.

On to UniProt P63244_C153, for which the “log2 ratio” value was inactive: 0.497. The value for UniProt P84085_C62 was inactive: -0.062; that for RPS21 C17 (UniProt P63220) was inactive: 0.625; that for UniProt P62873_C25 was inactive: 0.0513. The value for PPIA C62 (UniProt P62937) was inactive: 0.124. As for MRPS6 C105 (UniProt P82932), the “log2 ratio” value is inactive: 0.438.

With UniProt P62312_C36, the “log2 ratio” value is inactive: 0.139. Turning to UniProt P84077_C159, the “log2 ratio” value is inactive: -0.0511. Consider CNBP C54 (UniProt P62633), for which the “log2 ratio” value is inactive: -0.0171. Under UniProt P83731_C6 stands inactive: 0.668; under UniProt P63244_C286, inactive: 0.382.

Take GTF2I C215 (UniProt P78347): the “log2 ratio” value is inactive: 0.217. Consider HNRNPU C391 (UniProt Q00839), for which the “log2 ratio” value was inactive: -0.26. UniProt P62316_C46: the “log2 ratio” value is inactive: 0.0123. Under P86790_C358 (UniProt P86791+P86790) stands inactive: 0.213; under UniProt P78527_C630, inactive: 0.0548. Under FKBP1A C23 (UniProt P62942) stands inactive: 0.0261.
